Part of at least one peptide drawing is inferred or uncertain, most often the ends. Residues, ends and D or L forms follow the SMILES beside them.
Columns and labels:
Assay type in all cases: cell-based
P. aeruginosa = assay: Minimal inhibitory concentration in Luria broth, 24 hours (Example 1); conditions: about 10^5 bacteria/ml in Luria broth, complete growth inhibition at 24 hours
C. albicans = assay: as above; conditions: about 10^5/ml in Luria broth, complete growth inhibition at 24 hours
S. aureus = assay: MIC vs. S. aureus at varying molar ratios of PGLa to Magainin 2 (Example 3); conditions: approximately 10^3 S. aureus per ml Luria broth; no growth after 24 hours; label = mole PGLa/mole MGN2
Diphtheroids = assay: Minimal inhibitory concentration in Luria broth, 24 hours (Example 1); conditions: about 10^5 bacteria/ml in Luria broth, complete growth inhibition at 24 hours
Micrococcus = assay: as above; conditions: about 10^5 bacteria/ml in Luria broth, complete growth inhibition at 24 hours

| Compound | MINIMAL INHIBITORY CONCENTRATION (P. aeruginosa) [µg/mL] | MINIMAL INHIBITORY CONCENTRATION (C. albicans) [µg/mL] | MIC vs. S. aureus (S. aureus) [µg/mL] | MINIMAL INHIBITORY CONCENTRATION (Diphtheroids) [µg/mL] | MINIMAL INHIBITORY CONCENTRATION (Micrococcus) [µg/mL] |
| --- | --- | --- | --- | --- | --- |
| CC[C@H](C)[C@H](NC(=O)CN)C(=O)NCC(=O)N[C@@H](CCCCN)C(=O)N[C@@H](Cc1ccccc1)C(=O)N[C@@H](CC(C)C)C(=O)N[C@@H](Cc1c[nH]cn1)C(=O)N[C@@H](CO)C(=O)N[C@@H](C)C(=O)N[C@@H](CCCCN)C(=O)N[C@@H](CCCCN)C(=O)N[C@@H](Cc1ccccc1)C(=O)NCC(=O)N[C@@H](CCCCN)C(=O)N[C@@H](C)C(=O)N[C@@H](Cc1ccccc1)C(=O)N[C@H](C(=O)NCC(=O)N[C@@H](CCC(=O)O)C(=O)N[C@H](C(=O)N[C@@H](CCSC)C(=O)N[C@@H](CC(N)=O)C(=O)N[C@@H](CO)C(=O)O)[C@@H](C)CC)C(C)C [MGN2, Magainin II] (H-GIGKFLHSAKKFGKAFVGEIMNS-OH) | 250 | 250 | > 500 | – | – |
| CC[C@H](C)[C@H](NC(=O)[C@H](C)NC(=O)CNC(=O)[C@H](C)NC(=O)[C@H](CCCCN)NC(=O)[C@H](CO)NC(=O)[C@H](C)NC(=O)[C@H](CCSC)NC(=O)CN)C(=O)N[C@@H](C)C(=O)NCC(=O)N[C@@H](CCCCN)C(=O)N[C@H](C(=O)N[C@@H](C)C(=O)N[C@@H](CCCCN)C(=O)N[C@H](C(=O)N[C@@H](C)C(=O)N[C@@H](CC(C)C)C(=O)N[C@@H](CCCCN)C(=O)N[C@@H](C)C(=O)N[C@@H](CC(C)C)C(N)=O)C(C)C)[C@@H](C)CC [PGLa] (H-GMASKAGAIAGKIAKVALKAL-NH2) | 250 | 240 | > 500 | 125 | 125 |
